Laboratory results as given in patent US11202779B2, “Combinations for the treatment of neoplasms using quiescent cell targeting with EGFR inhibitors” (Felicitex Therapeutics, Inc., priority 2016, dated 2021).
At least one compound was matched to its structure with a doubt left.

Tests used:
Format in all cases: cell-based
DYRK1B = test: Western blot, DYRK1B expression in H1975 cells; conditions: 24 hours treatment, compared to untreated cells in FBS+ or FBS− medium
Procedure: (§1) For Western Blot analysis cells were seeded into 6-well plates at 5×10^5-9×10^5 cells/well (depending on the cell size and rate of proliferation), allowed to attach for 24 hours, then treated with compounds for 24 hours, and harvested. Immunoblotting was performed using conventional techniques, as described in Cell Signaling Technologies Western Blotting protocol (www.cellsignal.com).

H1975 cells = test: FACS analysis of cell cycle distribution (Acridine Orange), H1975
[1] = system: phosphorylated Y1068-EGFR; test: Western blot, EGFR phosphorylation in H1975 cells; conditions: 24 hours treatment
Procedure: as §1

[2] = 24 hours FBS− then release 24 hours in FBS+ media with 80 nM rociletinib and 5 μM Compound I-7

## C=CC(=O)Nc1cccc(Nc2nc(Nc3ccc(N4CCN(C(C)=O)CC4)cc3OC)ncc2C(F)(F)F)c1 [rociletinib]
DYRK1B
  expression of DYRK1B protein: induced expression of DYRK1B protein similar to or higher than that produced by serum starvation
H1975 cells; 24 hours FBS− then release 24 hours in FBS+ media with 80 nM rociletinib alone
  fraction of cells in quiescent state (G0): significant increase in fraction of cells in quiescent state (G0)
H1975 cells; [2]
  apoptotic cells (sub-G0 fraction): large increase in apoptotic cells
  proportion of quiescent cells (G0): no such increase in proportion of quiescent cells was observed
[1]
  EGFR phosphorylation (ph-Y1068 EGFR): suppressed the EGFR phosphorylation
